Experimental data from US20100196469A1, “Pharmaceutical Formulation containing an HMG-COA Reductase Inhibitor and method for the preparation thereof” (PHARMATHEN S.A., priority 2007, published 2010).
Counter-ions that a name gives are not always drawn.

Columns and labels:
[1] = Carr's Index (flow properties); format: physicochemical; conditions: pure pharmaceutical substance
Text: However, when Attapulgite was incorporated according to the present invention, a decrease of 19% of the Carr Index was observed, which indicates an improvement of the flow properties of Atorvastatin and therefore the use of a direct compression for the final formulation.

[2] = Dissolution test, Paddle Apparatus 75 rpm, 37° C., 1000 ml H2O; format: physicochemical; conditions: paddle 75 rpm
Protocol: One of the most critical pharmacotechnical tests, is the Dissolution test as it is strongly correlated with the bioavailability of the product. For the dissolution method a Paddle Apparatus was used 75 rpm, 37° C., time 30 min, while as a dissolution medium 1000 ml of H2O was used.

Compound: CC(C)c1c(C(=O)Nc2ccccc2)c(-c2ccccc2)c(-c2ccc(F)cc2)n1CC[C@@H](O)C[C@@H](O)CC(=O)O (relative stereo) [Atorvastatin, [R—(R*,R*)]-2-(4-fluorophenyl)-b,d-dihydroxy-5-(1-methylethyl)-3-phenyl-4[(phenylamino)carbonyl]-1H -pyrrole-1-heptanoic acid, calcium salt (2:1) trihydrate]
- mean Carr's Index [1]: 22.3%
- Dissolution profile ([2]; 5 min): 15.37
- Dissolution profile ([2]; 15 min): 50.80
- Dissolution profile ([2]; 30 min): 58.48
